# According to PubChem BioAssay (EPA / NIEHS):
# Amino acid sequences for entries named in this document (tags omitted). A change or cut given only in a name is not applied to a line headed by its entry.
# UniProt P31749: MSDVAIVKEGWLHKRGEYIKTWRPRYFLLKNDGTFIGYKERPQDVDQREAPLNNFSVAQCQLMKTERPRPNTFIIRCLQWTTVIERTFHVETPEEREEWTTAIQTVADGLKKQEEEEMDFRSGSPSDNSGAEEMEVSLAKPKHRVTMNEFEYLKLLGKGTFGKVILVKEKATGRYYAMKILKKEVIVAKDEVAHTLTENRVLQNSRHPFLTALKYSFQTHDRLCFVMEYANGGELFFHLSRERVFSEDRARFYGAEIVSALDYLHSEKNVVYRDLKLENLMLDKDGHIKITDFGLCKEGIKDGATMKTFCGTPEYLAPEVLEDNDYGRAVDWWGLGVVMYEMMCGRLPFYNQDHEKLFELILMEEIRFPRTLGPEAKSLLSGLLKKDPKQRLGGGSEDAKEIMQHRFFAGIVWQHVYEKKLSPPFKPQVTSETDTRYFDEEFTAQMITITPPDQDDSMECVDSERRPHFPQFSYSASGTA
# UniProt Q96RI1: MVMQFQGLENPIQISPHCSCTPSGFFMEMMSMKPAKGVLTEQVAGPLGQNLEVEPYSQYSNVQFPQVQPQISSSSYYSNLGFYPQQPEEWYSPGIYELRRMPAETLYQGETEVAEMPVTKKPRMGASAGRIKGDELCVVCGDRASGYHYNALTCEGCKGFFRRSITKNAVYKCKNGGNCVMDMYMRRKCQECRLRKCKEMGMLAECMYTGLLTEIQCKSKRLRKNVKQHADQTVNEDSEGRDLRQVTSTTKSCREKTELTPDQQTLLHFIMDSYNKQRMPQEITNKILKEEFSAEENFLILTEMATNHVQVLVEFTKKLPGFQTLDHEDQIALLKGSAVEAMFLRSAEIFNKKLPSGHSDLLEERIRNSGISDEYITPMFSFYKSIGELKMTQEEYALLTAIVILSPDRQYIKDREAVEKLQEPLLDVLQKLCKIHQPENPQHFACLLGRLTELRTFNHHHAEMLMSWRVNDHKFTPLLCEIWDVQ
# UniProt P03372, whole entry, looked up: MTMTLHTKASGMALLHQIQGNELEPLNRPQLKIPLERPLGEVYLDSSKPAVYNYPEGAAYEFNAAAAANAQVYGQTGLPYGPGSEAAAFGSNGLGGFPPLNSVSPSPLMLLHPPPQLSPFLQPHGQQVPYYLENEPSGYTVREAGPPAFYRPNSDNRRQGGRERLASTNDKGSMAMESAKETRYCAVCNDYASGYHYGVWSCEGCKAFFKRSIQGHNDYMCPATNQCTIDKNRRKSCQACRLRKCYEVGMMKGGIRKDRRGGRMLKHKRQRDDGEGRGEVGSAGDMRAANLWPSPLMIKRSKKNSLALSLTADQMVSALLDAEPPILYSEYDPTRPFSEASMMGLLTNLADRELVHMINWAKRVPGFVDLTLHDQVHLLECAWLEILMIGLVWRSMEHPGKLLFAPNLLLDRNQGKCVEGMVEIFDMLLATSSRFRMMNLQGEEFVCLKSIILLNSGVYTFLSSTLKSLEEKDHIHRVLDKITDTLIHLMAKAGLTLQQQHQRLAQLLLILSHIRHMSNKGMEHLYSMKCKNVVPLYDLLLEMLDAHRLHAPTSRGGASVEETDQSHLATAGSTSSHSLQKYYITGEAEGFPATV
# UniProt P08588, whole entry, looked up: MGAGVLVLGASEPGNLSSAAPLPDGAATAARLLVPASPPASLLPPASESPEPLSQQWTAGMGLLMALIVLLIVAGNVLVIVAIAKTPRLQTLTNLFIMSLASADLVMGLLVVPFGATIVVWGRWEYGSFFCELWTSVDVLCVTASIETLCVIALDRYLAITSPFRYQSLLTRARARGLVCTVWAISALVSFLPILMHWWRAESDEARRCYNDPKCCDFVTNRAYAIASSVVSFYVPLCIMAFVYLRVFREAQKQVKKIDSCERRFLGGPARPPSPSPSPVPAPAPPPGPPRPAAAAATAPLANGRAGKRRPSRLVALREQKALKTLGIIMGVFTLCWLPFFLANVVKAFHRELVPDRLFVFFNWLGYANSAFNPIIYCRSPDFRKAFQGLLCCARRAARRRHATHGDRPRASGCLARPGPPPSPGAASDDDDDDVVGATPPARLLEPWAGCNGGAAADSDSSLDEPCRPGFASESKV
# UniProt P18825, whole entry, looked up: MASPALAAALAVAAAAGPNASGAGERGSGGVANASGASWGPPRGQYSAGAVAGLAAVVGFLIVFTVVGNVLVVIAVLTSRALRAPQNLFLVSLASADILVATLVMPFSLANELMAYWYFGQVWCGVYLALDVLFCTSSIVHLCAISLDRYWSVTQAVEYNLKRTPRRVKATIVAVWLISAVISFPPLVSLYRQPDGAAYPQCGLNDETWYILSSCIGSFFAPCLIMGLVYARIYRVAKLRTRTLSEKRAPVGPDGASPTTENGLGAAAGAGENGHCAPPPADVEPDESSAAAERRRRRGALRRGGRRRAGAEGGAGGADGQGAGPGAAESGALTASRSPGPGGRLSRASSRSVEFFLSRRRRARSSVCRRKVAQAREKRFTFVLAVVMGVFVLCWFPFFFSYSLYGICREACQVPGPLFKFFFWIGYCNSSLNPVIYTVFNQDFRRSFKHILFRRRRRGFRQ
# UniProt P21917, whole entry, looked up: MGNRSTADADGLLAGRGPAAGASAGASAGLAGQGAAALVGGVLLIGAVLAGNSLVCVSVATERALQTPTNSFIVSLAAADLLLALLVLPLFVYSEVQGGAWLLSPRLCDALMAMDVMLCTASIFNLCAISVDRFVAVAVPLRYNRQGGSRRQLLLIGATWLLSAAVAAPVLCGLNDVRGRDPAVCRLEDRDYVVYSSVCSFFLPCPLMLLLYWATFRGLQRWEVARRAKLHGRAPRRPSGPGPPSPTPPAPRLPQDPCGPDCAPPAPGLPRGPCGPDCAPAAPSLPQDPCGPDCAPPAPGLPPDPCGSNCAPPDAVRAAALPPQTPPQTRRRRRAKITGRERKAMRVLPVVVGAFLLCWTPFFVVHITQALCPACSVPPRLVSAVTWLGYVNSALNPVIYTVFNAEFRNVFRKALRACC
# UniProt P35367, whole entry, looked up: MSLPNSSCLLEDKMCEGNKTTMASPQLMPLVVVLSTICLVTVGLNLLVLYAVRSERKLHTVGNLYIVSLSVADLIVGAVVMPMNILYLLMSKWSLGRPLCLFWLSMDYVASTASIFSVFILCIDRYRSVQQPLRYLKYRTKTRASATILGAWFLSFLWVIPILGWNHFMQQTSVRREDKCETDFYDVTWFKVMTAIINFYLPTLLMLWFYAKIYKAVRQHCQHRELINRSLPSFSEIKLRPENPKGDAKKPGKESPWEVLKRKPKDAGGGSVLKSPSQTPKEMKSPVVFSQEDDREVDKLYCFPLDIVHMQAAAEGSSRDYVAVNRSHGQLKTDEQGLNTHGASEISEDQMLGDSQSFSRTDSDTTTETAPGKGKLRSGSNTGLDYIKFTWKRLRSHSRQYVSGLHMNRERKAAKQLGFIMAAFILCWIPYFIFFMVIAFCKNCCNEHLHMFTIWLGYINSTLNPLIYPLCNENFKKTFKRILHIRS
# UniProt P08172, whole entry, looked up: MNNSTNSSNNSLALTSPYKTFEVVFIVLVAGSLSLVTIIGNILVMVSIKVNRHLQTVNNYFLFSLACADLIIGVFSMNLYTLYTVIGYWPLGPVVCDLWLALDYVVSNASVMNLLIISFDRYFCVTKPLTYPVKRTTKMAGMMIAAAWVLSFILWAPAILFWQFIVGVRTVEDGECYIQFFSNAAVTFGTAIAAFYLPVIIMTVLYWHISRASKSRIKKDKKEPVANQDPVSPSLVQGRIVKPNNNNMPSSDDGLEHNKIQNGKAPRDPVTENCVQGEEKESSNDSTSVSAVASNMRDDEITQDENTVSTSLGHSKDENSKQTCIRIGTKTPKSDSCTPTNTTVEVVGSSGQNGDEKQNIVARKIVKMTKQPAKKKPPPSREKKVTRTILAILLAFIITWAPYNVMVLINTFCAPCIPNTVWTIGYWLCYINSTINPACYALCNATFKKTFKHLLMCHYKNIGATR
# UniProt P43140: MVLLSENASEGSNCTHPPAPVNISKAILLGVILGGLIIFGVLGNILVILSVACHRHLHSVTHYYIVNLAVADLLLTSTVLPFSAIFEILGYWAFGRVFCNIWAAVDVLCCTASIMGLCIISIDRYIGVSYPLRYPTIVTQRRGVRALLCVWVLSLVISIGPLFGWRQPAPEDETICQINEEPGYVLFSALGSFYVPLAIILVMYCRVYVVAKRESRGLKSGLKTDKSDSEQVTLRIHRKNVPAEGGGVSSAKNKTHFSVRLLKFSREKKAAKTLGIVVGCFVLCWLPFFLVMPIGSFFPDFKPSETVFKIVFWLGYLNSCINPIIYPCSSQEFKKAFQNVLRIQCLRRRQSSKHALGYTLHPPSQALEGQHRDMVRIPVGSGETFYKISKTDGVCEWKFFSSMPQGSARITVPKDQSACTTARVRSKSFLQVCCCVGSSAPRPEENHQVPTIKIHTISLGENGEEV
# UniProt P22909, whole entry, looked up: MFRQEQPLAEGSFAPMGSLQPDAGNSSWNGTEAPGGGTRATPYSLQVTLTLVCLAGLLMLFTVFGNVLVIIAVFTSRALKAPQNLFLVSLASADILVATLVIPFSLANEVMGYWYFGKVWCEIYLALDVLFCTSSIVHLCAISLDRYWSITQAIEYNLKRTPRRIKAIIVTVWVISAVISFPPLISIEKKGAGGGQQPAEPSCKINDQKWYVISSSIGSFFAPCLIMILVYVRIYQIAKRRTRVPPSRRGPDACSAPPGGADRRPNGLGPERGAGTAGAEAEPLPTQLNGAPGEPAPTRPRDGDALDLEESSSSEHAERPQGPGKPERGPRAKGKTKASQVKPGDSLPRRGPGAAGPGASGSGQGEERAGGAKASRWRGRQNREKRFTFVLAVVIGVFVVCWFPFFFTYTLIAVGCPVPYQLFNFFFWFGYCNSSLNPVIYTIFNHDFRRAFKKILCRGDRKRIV
# UniProt Q12809: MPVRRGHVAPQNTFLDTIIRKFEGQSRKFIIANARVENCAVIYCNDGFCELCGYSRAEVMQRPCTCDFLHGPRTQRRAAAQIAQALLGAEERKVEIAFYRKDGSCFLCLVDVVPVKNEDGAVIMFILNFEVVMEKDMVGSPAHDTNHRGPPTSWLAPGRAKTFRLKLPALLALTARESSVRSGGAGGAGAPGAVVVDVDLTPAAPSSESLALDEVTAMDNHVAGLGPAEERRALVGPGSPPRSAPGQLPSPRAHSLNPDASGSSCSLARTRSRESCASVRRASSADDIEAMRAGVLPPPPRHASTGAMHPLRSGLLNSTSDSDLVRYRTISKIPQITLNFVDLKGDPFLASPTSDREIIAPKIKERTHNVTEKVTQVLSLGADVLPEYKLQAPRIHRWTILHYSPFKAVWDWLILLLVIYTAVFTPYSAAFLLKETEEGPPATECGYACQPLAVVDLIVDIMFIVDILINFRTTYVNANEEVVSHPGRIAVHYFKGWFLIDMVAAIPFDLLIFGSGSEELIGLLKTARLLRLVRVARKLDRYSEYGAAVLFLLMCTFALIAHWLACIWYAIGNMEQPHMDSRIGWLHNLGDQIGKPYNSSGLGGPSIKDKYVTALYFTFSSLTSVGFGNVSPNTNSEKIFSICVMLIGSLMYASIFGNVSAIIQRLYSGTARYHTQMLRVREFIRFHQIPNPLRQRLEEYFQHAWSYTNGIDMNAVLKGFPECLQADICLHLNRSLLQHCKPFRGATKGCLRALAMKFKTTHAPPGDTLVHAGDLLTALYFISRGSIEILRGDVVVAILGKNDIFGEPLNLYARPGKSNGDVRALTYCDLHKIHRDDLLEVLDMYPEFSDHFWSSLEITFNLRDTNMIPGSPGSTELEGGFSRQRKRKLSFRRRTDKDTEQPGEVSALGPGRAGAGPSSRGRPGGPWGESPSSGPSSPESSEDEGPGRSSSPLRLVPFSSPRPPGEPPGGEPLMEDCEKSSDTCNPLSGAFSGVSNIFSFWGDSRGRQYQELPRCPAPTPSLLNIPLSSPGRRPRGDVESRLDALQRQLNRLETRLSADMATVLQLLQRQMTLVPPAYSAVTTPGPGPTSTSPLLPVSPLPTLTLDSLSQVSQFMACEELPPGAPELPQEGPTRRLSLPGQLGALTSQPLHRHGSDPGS
# UniProt P31652, whole entry, looked up: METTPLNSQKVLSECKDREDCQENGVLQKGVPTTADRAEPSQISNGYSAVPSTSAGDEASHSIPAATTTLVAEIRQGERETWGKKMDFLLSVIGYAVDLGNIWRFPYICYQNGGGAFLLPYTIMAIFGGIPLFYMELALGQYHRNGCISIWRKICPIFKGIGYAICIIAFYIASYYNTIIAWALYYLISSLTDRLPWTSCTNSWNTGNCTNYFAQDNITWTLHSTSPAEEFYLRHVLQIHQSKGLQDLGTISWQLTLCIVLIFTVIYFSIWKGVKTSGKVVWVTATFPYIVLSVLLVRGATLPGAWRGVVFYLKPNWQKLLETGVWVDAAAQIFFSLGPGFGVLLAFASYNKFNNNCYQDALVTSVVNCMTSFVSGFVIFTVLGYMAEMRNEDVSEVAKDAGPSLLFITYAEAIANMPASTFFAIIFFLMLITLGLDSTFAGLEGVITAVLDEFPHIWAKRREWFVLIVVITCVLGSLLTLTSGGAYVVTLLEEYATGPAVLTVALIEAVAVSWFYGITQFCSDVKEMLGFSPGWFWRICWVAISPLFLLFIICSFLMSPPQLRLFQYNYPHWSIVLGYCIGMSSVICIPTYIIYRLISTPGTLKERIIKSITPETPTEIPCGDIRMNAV
# Inconclusive means that the source gave no clear call. Such entries were picked first, then a sample of the others. For some assays here: Potencies of inconclusive entries are doubtful fits and often do not repeat. Activity calls are given as the source filed them. The calls were made as follows: active = hit-call score of the fitted dose curve at least 0.9, where 1 is the maximum; inconclusive = response in the unintended direction; inactive = score below 0.9.
# Key:
# [1] = biological target: human AKT serine/threonine Kinase 1 (AKT1), AKT1 (gene 207) (UniProt P31749); assay: NVS_ENZ_hAKT1: NovaScreen (NVS) Enzymatic Assay for human AKT serine/threonine Kinase 1 (AKT1) (AID 2283138)
# Method in brief: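 Recombinant AKT1, specific substrate, cell-free; 1 h; fluorescence intensity/electrophoretic mobility shift. Duplicate single-point 25 uM, then singleton CRC max 50 uM. DMSO = negative control/baseline; signal loss = inhibition.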
# [2] = biological target: Bile acid receptor (Homo sapiens) (UniProt Q96RI1); assay: NVS_NR_hFXR_Agonist: NovaScreen (NVS) Nuclear Receptor Binding Assay for human Farnesoid X Receptor Agonism (FXR) (AID 2283347)
# Method in brief: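 Cell-free TR-FRET binding assay with extracted human FXR protein, agonist format, read 1 h after dosing. Primary screen at 25 uM single concentration in duplicate, actives retested in concentration series; gain of signal versus DMSO.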
# [3] = biological target: Estrogen receptor (Homo sapiens) (UniProt P03372); assay: CCTE_Deisenroth_AIME_384WELL_LUC_Active: CCTE's 384-well Estrogen Receptor Transactivation Assay with AIME metabolic competence (ERTA luciferase; metabolism positive), Deisenroth Lab (AID 2284030)
# Method in brief: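 Chemicals (10-point, 0.002-200 uM) were first incubated 2 hours with alginate-immobilized induced male Sprague Dawley rat liver S9. The conditioned medium was then applied to VM7Luc4E2 cells for 24 hours, with ER luciferase induction read by luminescence relative to 17beta-estradiol.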
# [4] = biological target: Estrogen receptor (Homo sapiens) (UniProt P03372); assay: CCTE_Deisenroth_AIME_384WELL_LUC_Inactive: CCTE's 384-well Estrogen Receptor Transactivation Assay without AIME metabolic competence (ERTA luciferase; metabolism negative), Deisenroth Lab (AID 2284038);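 also: VM7Luc4E2 breast cells given medium preincubated 2 h with S9-free microspheres; hits raise estrogen receptor luciferase signal so potencies reflect agonists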
# Method in brief: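 Metabolism-negative mode: chemicals (10-point, 0.002–200 uM) held 2 h with alginate-water microspheres, then conditioned medium applied to VM7Luc4E2 cells for 24 h. Luciferase induction referenced to 17beta-estradiol.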
# [5] = biological target: Cytochrome P450 3A4 (Homo sapiens) (UniProt P08684); assay: NVS_ADME_hCYP3A4: NovaScreen (NVS) CYP450-related Enzyme Activity (ADME) Assay for human CYP3A4 (AID 2283110)
# Method in brief: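 Compounds were first screened in duplicate at 10 uM against recombinant CYP3A4 produced in insect cells, then actives were run in concentration series. Enzyme activity was measured by fluorescence after 0.33 hour, with acetonitrile as baseline.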
# [6] = biological target: human Adrenergic, Beta 1 Receptor (Adrb1), ADRB1 (gene 153) (UniProt P08588); assay: NVS_GPCR_hAdrb1: NovaScreen (NVS) G Protein-Coupled Receptor Assay for human Adrenergic, Beta 1 Receptor (Adrb1) (AID 2283258)
# Method in brief: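 Cell-free radioligand displacement on receptor from human neuroepithelioma cells; 2 h after dosing, filter-based scintillation counting. Primary screen in duplicate at 25 uM, actives retested in concentration series; loss of signal vs DMSO baseline.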
# [7] = biological target: human Adrenergic, Alpha 2c Receptor (Adra2C), ADRA2C (gene 152) (UniProt P18825); assay: NVS_GPCR_hAdra2C: NovaScreen (NVS) G Protein-Coupled Receptor Assay for human Adrenergic, Alpha 2c Receptor (Adra2C) (AID 2283259)
# Method in brief: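 Radioligand binding on Sf9-expressed receptor membranes, 1 h after chemical dosing, filter-based scintillation read-out. Loss of binding fitted positively versus DMSO; primary duplicate screen at 25 uM, actives retested in concentration series.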
# [8] = biological target: human Dopamine Receptor D4.4 (DRD4.4), DRD4 (gene 1815) (UniProt P21917); assay: NVS_GPCR_hDRD4.4: NovaScreen (NVS) G Protein-Coupled Receptor Assay for human Dopamine Receptor D4.4 (DRD4.4) (AID 2283264)
# Method in brief: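 Radioligand displacement on human DRD4.4 from CHO-derived membranes, 1 hour incubation, bound counts read by filtration and scintillation. Primary screen in duplicate at 25 uM; actives followed up in concentration series.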
# [9] = biological target: human Histamine 1 Receptor (H1), HRH1 (gene 3269) (UniProt P35367); assay: NVS_GPCR_hH1: NovaScreen (NVS) G Protein-Coupled Receptor Assay for human Histamine 1 Receptor (H1) (AID 2283268)
# Method in brief: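 Cell-free radioligand displacement at human H1 receptor, 1 h, filter scintillation counting; primary screen 25 uM in duplicate, hits in concentration series; loss of binding fitted vs DMSO.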
# [10] = biological target: Muscarinic acetylcholine receptor M2 (Homo sapiens) (UniProt P08172); assay: NVS_GPCR_hM2: NovaScreen (NVS) G Protein-Coupled Receptor Assay for human Muscarinic, M2 Receptor (AID 2283273)
# Method in brief: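 CHO membrane prep, radioligand + test compound, 1 h; filtration, scintillation count. Screen 25 uM duplicate → conc. series for actives. Readout: decrease in binding vs DMSO control.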
# [11] = biological target: rat Adrenergic, Alpha 1A Receptor (Adra1A), Adra1a (gene 29412) (UniProt P43140); assay: NVS_GPCR_rAdra1A: NovaScreen (NVS) G Protein-Coupled Receptor Assay for rat Adrenergic, Alpha 1A Receptor (Adra1A) (AID 2283296)
# Method in brief: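 Rat cortical membranes pretreated with chlorethyl clonidine; competitive radioligand displacement, 1 h. Filter-based scintillation counting. Primary screen in duplicate at 25 uM, actives followed in concentration series.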
# [12] = system: rat Adrenergic, Alpha 1B Receptor (Adra1B), gene 24173; assay: NVS_GPCR_rAdra1B: NovaScreen (NVS) G Protein-Coupled Receptor Assay for rat Adrenergic, Alpha 1B Receptor (Adra1B) (AID 2283297)
# Method in brief: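 Rat liver membranes, radioligand displacement with filter-based scintillation detection, 1 h incubation. Primary screen in duplicate at 25 uM; actives retested in concentration series; activity relative to DMSO.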
# [13] = biological target: rat Adrenergic Receptor, Alpha 2 (Adra2), Non-selective Binding, Adra2a (gene 25083) (UniProt P22909); assay: NVS_GPCR_rAdra2_NonSelective: NovaScreen (NVS) G Protein-Coupled Receptor Assay for rat Adrenergic Receptor, Alpha 2 (Adra2), Non-selective Binding (AID 2283299)
# Method in brief: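 Rat cortical membranes, radioligand competitive displacement read by filter-based scintillation counting 1.25 hours after dosing. Primary screen in duplicate at 25 uM; actives followed up in concentration series.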
# [14] = biological target: Voltage-gated inwardly rectifying potassium channel KCNH2 (Homo sapiens) (UniProt Q12809); assay: NVS_IC_hKhERGCh: NovaScreen (NVS) Ion Channel Assay for human Potassium Channel ERG (KhERGCh) (AID 2283333)
# Method in brief: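 Cell-free radioligand competition binding on hERG protein extracted from CHO cells, read by filter-based scintillation counting 0.75 h after dosing. Primary screen at 25 uM in duplicate, actives followed in concentration series. Signal loss fitted versus DMSO.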
# [15] = system: guinea pig Histamine Receptor (H2), gene 100729734; assay: NVS_GPCR_gH2: NovaScreen (NVS) G Protein-Coupled Receptor Assay for guinea pig Histamine Receptor (H2) (AID 2283342)
# Method in brief: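 Radioligand displacement on guinea pig striatal membranes, 1 h after dosing, filter-based scintillation counting; loss of signal versus DMSO. Single-point screen at 25 uM in duplicate, then concentration-response up to 50 uM.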
# [16] = biological target: rat Serotonin Transporter (SERT), Slc6a4 (gene 25553) (UniProt P31652); assay: NVS_TR_rSERT: NovaScreen (NVS) Transporter Assay for rat Serotonin Transporter (SERT) (AID 2283375)
# Method in brief: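 Rat forebrain membranes; radioligand displacement at SERT read by filter-based scintillation counting, 1 h after dosing. Screened in duplicate at 25 uM, actives then run in concentration series; loss of signal versus DMSO baseline.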
# [17] = biological target: human Purinergic Receptor P2Y, P2RY1 (gene 5028) (UniProt P47900); assay: NVS_GPCR_hPY2: NovaScreen (NVS) G Protein-Coupled Receptor Assay for human Purinergic Receptor P2Y (AID 2283281)
# Method in brief: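 Cell-free radioligand binding using U937-derived protein, 1 h after dosing, filter-based scintillation counting. Screened in duplicate at 25 uM; actives rerun as concentration-response up to 50 uM; loss of signal versus DMSO.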
# [18] = system: Sodium/Iodide Symporter (NIS), SLC5A5 (gene 6528); assay: CPHEA_Stoker_NIS_Inhibition_RAIU: CPHEA's Radioactive Iodide Uptake (RAIU) Assay for Sodium/Iodide Symporter (NIS) Inhibition, Stoker and Laws Labs (AID 2283841)
# Method in brief: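 HEK293T cells stably expressing human NIS (hNIS-HEK293T-EPA) were exposed to test chemicals at 0.001–100uM (0.5% final DMSO) with 125I at a final 329pM in HBSS/10mM HEPES pH 7.4. After 2 hours at room temperature and ice-cold washes, intracellular 125I was counted as CPM and normalized to DMSO wells.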
# [19] = biological target: guinea pig Opioid, Kappa 1 Receptor (OpiateK), OPRK1 (gene 100135587) (UniProt P41144); assay: NVS_GPCR_gOpiateK: NovaScreen (NVS) G Protein-Coupled Receptor Assay for guinea pig Opioid, Kappa 1 Receptor (OpiateK) (AID 2283252);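 also: radioligand displacement from kappa opioid receptor in guinea pig cerebellar membranes; active means reduced radioligand binding relative to DMSO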
# Method in brief: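 Signal is scintillation counts of filter-trapped radioligand bound to guinea pig cerebellar membrane receptor, measured 2 hours post-dosing. Activity is loss of binding versus DMSO, first at 25 uM in duplicate, then as concentration series for actives.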
# [20] = TOX21_TR_RXR_BLA_Agonist_Followup_viability: Viability Assessment in the Tox21 Thyroid Hormone Receptor beta Retinoid X Receptor alpha (RXRa) Agonism Beta-lactamase (BLA) Follow-Up Assay (AID 2283970)
# Method in brief: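 Cells: HEK293T RXRa-UAS-bla, 2,500/well; medium phenol red-free DMEM + 2% charcoal-stripped FBS; 16h, 37C/5% CO2; qHTS concentration series. Read: CellTiter-Glo luminescence (ATP); bidirectional fit, DMSO = baseline.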
smiles,measurement,setting,value
CCCC(=O)O,outcome,[1],inactive
CCN(Cc1cccc(S(=O)(=O)O)c1)c1ccc(C(=C2C=CC(=[N+](CC)Cc3cccc(S(=O)(=O)O)c3)C=C2)c2ccc(O)cc2S(=O)(=O)[O-])cc1,AC50,[2],inconclusive: 28.2 µM
same,AC50,[3],inconclusive: 24.4 µM
same,AC50,[4],inconclusive: 36.1 µM
CCCCCCCCCCCCCCCCCC[N+](C)(C)Cc1ccccc1,AC50,[5],inconclusive: 2.5 µM
NC(=O)N(O)[C@@H]1C=C[C@H](Oc2cccc(Oc3ccc(F)cc3)c2)C1,outcome,[6],inactive
same,AC50,[7],inconclusive: 43.5 µM
same,AC50,[8],inconclusive: 0.115 µM
same,AC50,[9],inconclusive: 6.66 µM
same,AC50,[10],inconclusive: 25 µM
same,AC50,[11],inconclusive: 0.336 µM
same,outcome,[12],inactive
same,outcome,[13],inactive
same,AC50,[14],inconclusive: 0.24 µM
same,outcome,[15],inactive
same,AC50,[16],inconclusive: 0.0803 µM
[O-]n1ccccc1=S.[O-]n1ccccc1=S.[Zn+2],AC50,[17],inconclusive: 0.0121 µM
same,AC50,[18],active: 18.1 µM
On1ccccc1=S,AC50,[19],active: 10.4 µM
OCCCCC(O)CO (stereo not given),AC50,[20],inconclusive: 36.6 µM

# Quoted at random: 2 entries already listed
smiles,measurement,setting,value
NC(=O)N(O)[C@@H]1C=C[C@H](Oc2cccc(Oc3ccc(F)cc3)c2)C1,outcome,[15],inactive
OCCCCC(O)CO (stereo not given),AC50,[20],inconclusive: 36.6 µM
